Assay results: patent publication US20030049709A1, “Programmed cell death and Ich-3” (priority 1996, published 2003)
For part of these data: For at least one compound, name, drawing or mass did not settle the structure. Some entries share one result that the patent states for a list of compounds.

B1: Gra3: Granzyme 3 (protein, UniProt P49863 27-264, looked up)
Granzyme K: IIGGKEVSPHSRPFMASIQYGGHHVCGGVLIDPQWVLTAAHCQYRFTKGQSPTVVLGAHSLSKNEASKQTLEIKKFIPFSRVTSDPQSNDIMLVKLQTAAKLNKHVKMLHIRSKTSLRSGTKCKVTGWGATDPDSLRPSDTLREVTVTVLSRKLCNSQSYYNGDPFITKDMVCAGDAKGQKDSCKGDSGGPLICKGVFHAIVSGGHECGVATKPGIYTLLTKKYQTWIKSNLVPPHTN

Assays:
thymocytes = experiment: Thymocyte apoptosis under other apoptotic stimuli; assay type: cell-based, mice; settings: Ich-3 mutant thymocytes; dexamethasone 1 μM; 10 nM PMA and 500 nM Ca2+ ionophore
Protocol: Thymocytes are sensitive to several apoptotic stimuli such as irradiation and dexamethasone (Cohen, J. J., et al., Annu. Rev. Immunol. 10:267-293 (1992)). To determine if apoptosis of thymocytes is affected by a mutation in the Ich-3 locus, Ich-3−/− thymocytes were examined for defects in apoptosis using a variety of apoptotic induction signals. Thymocytes isolated from 6-7 week old, wild-type and Ich-3 mutant mice were treated with 500 rads of y-irtadiation, or dexamethasone (1(IM, or 10 nM phorbol myristate acetate (PMA) and 500 nM Ca^2+ ionophore, and cell viability was examined 10 hr or 24 hr after treatment by using FCAS analysis after staining with propidine iodine. (Schwartz, et al., “Cell Death—Methods in Cell Biology.” vol. 46, Academic Press).

embryonic fibroblasts = experiment: Granzyme/perforin induced apoptosis of embryonic fibroblasts (Hoechst dye); assay type: cell-based, mice; settings: wild type EF cells; 0.8 μg/ml granzyme with 50 ng/ml perforin; 2 hrs (GraB), 8 hrs (Gra3)
Protocol: FIGS. 9A-9B. Ich-3 deficient EF cells are resistant to Granzyme B and Granzyme 3 induced apoptosis. Embryonic fibroblasts from Ich-3−/− and wild type controls were treated with varying concentrations of granzyme B (FIG. 9A) or granzyme 3 (FIG. 9B) in the presence of a constant amount of perforin (50 ng/ml) for a period of 2 and 8 hrs, respectively. The percentage of apoptosis cells was determined from cell counts after staining with Hoechst dye (Chen et al., 1995). Control wells contained cells alone incubated with or without perforin. Data points represent the percentage of apoptotic cells for a particular dilution of granzyme minus the percentage of apoptotic cells observed in medium alone.
Granule serine protease (GraB) derived from cytotoxic T lymphocytes (CTL) can induce apoptosis in the presence of the pore forming protein perforin (Shi et al., J. Exp. Med. 176:1521-1529 (1992)). To determine the role of ICH-3 in apoptosis induced by GraB, the ability of Ich-3−/− embryonic fibroblasts (EF) to undergo apoptosis following treatment with GraB or Granzyme 3 (Gra3) and perforin was examined. Embryonic fibroblasts from Ich-3−/− mice and wild type littermate controls were treated with varying concentrations of GraB or Gra3 in the presence of a constant amount of perforin (50 ng/ml) for a period of 2 and 8 hrs, respectively.

| Molecule | resistance of thymocytes to induced apoptosis (thymocytes) | EF cells died (apoptosis) (embryonic fibroblasts) |
| --- | --- | --- |
| C[C@@H]1C[C@H]2[C@@H]3CCC4=CC(=O)C=C[C@]4(C)[C@@]3(F)[C@@H](O)C[C@]2(C)[C@@]1(O)C(=O)CO [dexamethasone] | not resistant |  |
| GraB: granule serine protease required for the cytotoxic activity of lymphocytes |  | More than 40% |
| B1 |  | More than 40% |
